PubChem BioAssay AID1259285, Sanger Institute – 2017

Aim: 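Kinase knock-downs that reduce colorectal cancer cell viability or act with drugs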 (primary screen)
Cell system: human HCC56 colorectal cancer cells
Reagent: siRNA pool against human genes
Challenge: DMSO vehicle, or anchor drug BYL719 at 1 µM, cetuximab at 5 µg/ml, or trametinib at 10 nM
Measured: 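Viability as a ratio to non-targeting pool wells, averaged over replicates and turned into a robust z-score; synergy scores with BYL719, cetuximab or trametinib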
Reading the numbers: viability robust z-score, no drug: higher = more viable cells, weaker knock-down effect; viability vs non-targeting pool, no drug: higher = more viable cells
Rule for the call: 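a knock-down counts as essential if its viability z-score without drug is under -3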
Meaning of the calls: active = essential without drug; inactive = no change without drug
The deposit covers 794 reagents; this is an unselected part. Of all reagents, 20 (2.5%) were called active. 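Calls rest on the drug-free arm alone and ignore synergy scores; viability ratios seem to be capped at 1.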 Entries without a mark were called inactive. Not all columns of the deposit are shown. Reagent sequences are not shown. The record does not give: the amount of reagent, the time to read-out.

Which result is listed for WNK1?
viability robust z-score, no drug: 0.458; viability vs non-targeting pool, no drug: 1

With RPS6KB2, how do the results read?
viability robust z-score, no drug: 0.458; viability vs non-targeting pool, no drug: 1

For FRK, what was measured?
viability robust z-score, no drug: 0.458; viability vs non-targeting pool, no drug: 1

For RPS6KC1, how do the results read?
viability robust z-score, no drug: 0.458; viability vs non-targeting pool, no drug: 1

What is on record for STK39?
viability robust z-score, no drug: 0.458; viability vs non-targeting pool, no drug: 1

What did the screen give for PRKAR1A?
viability robust z-score, no drug: 0.458; viability vs non-targeting pool, no drug: 1

For ULK1, what does the deposit list?
viability robust z-score, no drug: 0.458; viability vs non-targeting pool, no drug: 1

For CAMK2G, how do the results read?
viability robust z-score, no drug: -0.465; viability vs non-targeting pool, no drug: 0.921

For KCNH2, what does the deposit list?
viability robust z-score, no drug: -0.0369; viability vs non-targeting pool, no drug: 0.957

With DYRK1A, what was measured?
viability robust z-score, no drug: 0.42; viability vs non-targeting pool, no drug: 0.997

With GNAS, how do the results read?
viability robust z-score, no drug: -2.5; viability vs non-targeting pool, no drug: 0.746

Which result is listed for MAP4K1?
viability robust z-score, no drug: -0.834; viability vs non-targeting pool, no drug: 0.889

For LMTK2, what does the deposit list?
viability robust z-score, no drug: -0.0865; viability vs non-targeting pool, no drug: 0.953

Which result is listed for RPS6KL1?
viability robust z-score, no drug: 0.458; viability vs non-targeting pool, no drug: 1

Which result is listed for ZAP70?
viability robust z-score, no drug: -0.0461; viability vs non-targeting pool, no drug: 0.957

With DGKD, what was measured?
viability robust z-score, no drug: -0.58; viability vs non-targeting pool, no drug: 0.911

What is on record for PRKCD?
viability robust z-score, no drug: 0.458; viability vs non-targeting pool, no drug: 1

Records listed so far whose target name starts with P or p (2):
PRKAR1A — viability robust z-score, no drug: 0.458; viability vs non-targeting pool, no drug: 1
PRKCD — viability robust z-score, no drug: 0.458; viability vs non-targeting pool, no drug: 1

Next records follow:
With TSSK2, how do the results read?
viability robust z-score, no drug: -0.538; viability vs non-targeting pool, no drug: 0.914

What is on record for BCR?
viability robust z-score, no drug: -0.942; viability vs non-targeting pool, no drug: 0.88

For CLK2, how do the results read?
viability robust z-score, no drug: 0.458; viability vs non-targeting pool, no drug: 1

For EGFR, what was measured?
viability robust z-score, no drug: -0.13; viability vs non-targeting pool, no drug: 0.949

What did the screen give for MAPK9?
viability robust z-score, no drug: 0.458; viability vs non-targeting pool, no drug: 1

Which result is listed for NEK11?
viability robust z-score, no drug: -1.36; viability vs non-targeting pool, no drug: 0.844

With NUAK1, how do the results read?
viability robust z-score, no drug: -0.0952; viability vs non-targeting pool, no drug: 0.952

What is on record for MARK1?
viability robust z-score, no drug: 0.315; viability vs non-targeting pool, no drug: 0.988

Which result is listed for PRKCA?
viability robust z-score, no drug: 0.458; viability vs non-targeting pool, no drug: 1

Which result is listed for EIF2AK2?
viability robust z-score, no drug: 0.458; viability vs non-targeting pool, no drug: 1

How did the screen score TRIO?
viability robust z-score, no drug: 0.458; viability vs non-targeting pool, no drug: 1

Which result is listed for GRK3?
viability robust z-score, no drug: 0.458; viability vs non-targeting pool, no drug: 1

Which result is listed for CHKB?
viability robust z-score, no drug: 0.458; viability vs non-targeting pool, no drug: 1

With ULK4, what does the deposit list?
viability robust z-score, no drug: -0.221; viability vs non-targeting pool, no drug: 0.942

With NEK3, how do the results read?
viability robust z-score, no drug: -1.84; viability vs non-targeting pool, no drug: 0.802

With WIPF1, what does the deposit list?
viability robust z-score, no drug: 0.458; viability vs non-targeting pool, no drug: 1

What is on record for MAP3K20?
viability robust z-score, no drug: 0.458; viability vs non-targeting pool, no drug: 1

What is on record for ERBB2?
viability robust z-score, no drug: 0.458; viability vs non-targeting pool, no drug: 1

With MGA, how do the results read?
viability robust z-score, no drug: 0.139; viability vs non-targeting pool, no drug: 0.973
